# Source: PMC10708888, “Evolution towards simplicity in bacterial small heat shock protein system” (eLife, 2023)
# These are yes or no findings as the source states them, for the method shown. Some binding calls cover weakened binding; strength is not graded here.
# B1: IbpA from Erwinia amylovora (protein, UniProt A0ABX7MII2 1-139)
# chain: MRNFDLAPLYRSSIGFDRLINLLETSQNQGNNGGYPPYNVELVAENHYRITIAVAGFAESELEITSHDNLLSVRGSHPDEQQERTWLYQGIAERNFERKFQLAEHVHVRDARLENGLLYIDLERVVPEANQPRRIEIVK
# Target: His-tagged luciferase, heat-aggregated on the BLI sensor (firefly) [luciferase: P08659]
# Experiment: BLI; ForteBio BLItz; His-tagged luciferase aggregated on the sensor; 5 µM sHsp (preincubated 10 min at 44 °C) bound for 10 min, then buffer F or Hsp70 system (0.7 µM DnaK, 0.28 µM DnaJ, 0.21 µM GrpE, 5 mM ATP) for 1 hr; room temperature; both purified
binder,measurement,value
B1,binding,binds
